Measured values published in article PMC10163288.
The other results are listed elsewhere or left out.

B1: il10ra_site1_normal_mot_HHH_b1_05357_000000034_0001_23_39_H_._HHH_b2_06120_0001_0000300014_0000001_0 (protein)
chain: SSSSSVEEEFRRLEEELEEALRNGDRELAAHIVIRIYALVNQNNNEELEQRAKELSRLVANSSSS
B2: il10ra_site1_sap_15_mot_HHH_b1_06731_af2_000000295_0001_1_19_H_._HHH_b2_01214_0001_0000300016_0000001_0_0001 (protein)
chain: SSSSSDEEREVRQKVEALLWFARYVDPRAREIMLKRAREIAEQNNDEELRELVEEVAEELSSSSS
B3: il10ra_site1_sap_22_mot_HHH_b2_04681_000000155_0001_43_57_H_._HHH_b2_07873_af2_0001_0000100003_0000002_0_0001_af2pred_0001 (protein)
chain: SSSSSDEEVRERVEELLEELEHVSPEEQTRLLREAARLAAEAEDPELKELVLEALEKVLSSSSSS
B4: il10ra_site1_sap_14_mot_HHH_b1_06789_af2_000000041_0001_1_20_H_._HHH_b2_04588_af2_0001_0000300012_0000001_0_0001 (protein)
chain: SSSSSAEEAFRLAEEVIKRLREITDPEEIEELAEEVRRELEELGNPEAARQIEHLARLERSSSSS
B5: il10ra_site1_sap_16_mot_HHH_b2_07144_000000289_0001_1_18_H_._HHH_b2_06430_0001_0000300020_0000002_0_0001_af2pred_0001 (protein)
chain: SSSSSDVEEEAKRLYRELRELIEEGDEEELRRVEKELLELALRHRDREAAKALLRIYRLHSSSSS
B6: il10ra_site1_sap_19_mot_HHH_b2_03284_af2_000000155_0001_1_21_H_._HHH_b1_04583_0001_0000100015_0000001_0_0001_af2pred_0001 (protein)
chain: SSSSDKELAERAVRLLLRAAREISDEEVVKRSFKFARWVAEEANDPELERLVEEVFEELQSSSSS
B7: il10ra_site1_sap_17_mot_HHH_b2_00988_000000064_0001_1_19_H_._HHH_b2_03322_af2_0001_0000700023_0000001_1_0001 (protein)
chain: SSSSDKEEELRELLEELERLAEEGDLERFAKVAKRVIRLAFQLGDEEILQLLWELLKKIASSSSS
B8: il10ra_site1_sap_12_mot_HHH_b2_02053_af2_000000006_0001_3_19_H_._HHH_b2_04646_0001_0000300016_0000002_0_0001 (protein)
chain: SSSSSDEEEERVRELLEEAEQIPDPEKAAEVLLEALHLALHLGNQELLQEVWEVVKRLGSSSSSS
B9: il10ra_site1_sap_21_mot_HHH_b1_06914_000000280_0001_1_18_H_._HHH_b1_08370_0001_0000500035_0000001_0_0001_af2pred_0001 (protein)
chain: SSSSSDEREEEVERLLEEAKRIDDPHEVAYLLIRAFALATQANDPELEEEVRKVAQELASSSSSS
B10: il10ra_site1_sap_18_mot_HHH_b2_00277_af2_000000172_0001_1_17_H_._HHH_b2_06595_0001_0000400029_0000002_0_0001_af2pred_0001 (protein)
chain: SSSSSSEEERRVLKLAARLLRRASEEEQEELLRLLVRIFMEGDPRLVEELRKLIEEIEKGSSSSS
B11: il10ra_site1_normal_mot_HHH_b2_00800_af2_000000047_0001_1_20_H_._HHH_b1_07634_0001_0000400033_0000002_0 (protein)
chain: SSSSSSEEQEEFRRLEEELEEAKNAQEFYEILRRLIEVASEARDPELLRLVIELLRRFLKSSSSS
B12: il10ra_site1_normal_mot_HHH_b2_06979_000000158_0001_42_57_H_._HHH_b2_02232_0001_0000100004_0000001_0 (protein)
chain: SSSSSENEEVFRLIKEAAELRSEGNPEEAREVLKEAEELAKEAGNELLEINIEFLLRDIEKSSSS
B13: il10ra_site1_normal_mot_HHH_b1_01880_000000285_0001_23_39_H_._HHH_b2_02582_0001_0000300015_0000001_0_af2pred_0001 (protein)
chain: SSSSSSDEFEELLEEAERLAEELGDEEIEIAIKILERLYRESGDPLIKRTLRALLRVLSSSSSSS
B14: il10ra_site1_normal_mot_HHH_b1_00999_000000080_0001_41_55_H_._HHH_b2_03706_0001_0000600031_0000001_0 (protein)
chain: SSSSDYEERVEELLEQAEELAERGNPEEAARLLQEAVRLAYEAKDQELLKLVWEVAKKLGSSSSS
B15: il10ra_site1_normal_mot_1cde5897893f3d1588f92be3b001cdf2_0001_af2_000000130_0001_54_65_H_._HHH_b2_05871_0001_0000300015_0000001_1_af2pred_0001 (protein)
chain: SSSSSDEEVEERVEELLERLHHVDPKEAAQLLHEAARLAAELDNPELLELVFEAAEEVISSSSSS
B16: il10ra_site1_normal_mot_513c16ae44941e68898e0f7c259e5a28_0001_1_000000056_0001_35_50_H_._ems_p1-15H-GBL-16H-GABBL-16H_0062_0001_0001_0002_0001_0000300016_000000 … (protein)
chain: SSSSSSVEELAEEARELAEERGDEEAEDLVEAIKRLAEQGILDPHAAEVSLRALIRLLEESSSSS
B17: il10ra_site1_normal_mot_493e05f641973f3adf044177f88ae147_0001_af2_000000048_0001_1_12_H_._HHH_b1_05964_af2_0001_0000100001_0000002_0_af2pred_0001 (protein)
chain: SSSSSSREETLRFAVEVLVRAFKLSEEQKEELEELAEELLRRGYDPREVLEILLERAKKLSSSSS
B18: il10ra_site1_sap_14_mot_HHH_b2_06497_000000202_0001_1_20_H_._HHH_b1_08167_af2_0001_0000100005_0000001_0_0001 (protein)
chain: SSSSDLEEEVEELLEEAKRIEDPREAAKVLLRALRLAIEAQDPELLRLVWEVVKEVARRLSSSSS
B19: il10ra_site1_sap_21_mot_HHH_b2_02900_000000189_0001_39_52_H_._HHH_b1_05382_0001_0000300031_0000002_0_0001_af2pred_0001 (protein)
chain: SSSSSSNLYELLREITELLKRGNPEEAEELLEELKKEVEEKNDERAKRQAELLERLIKSSSSSSS
B20: il10ra_site1_normal_mot_HHH_b2_04251_af2_000000037_0001_42_56_H_._HHH_b1_00525_0001_0000200026_0000002_0_af2pred_dldesign_0_af2pred (protein)
chain: SSSSSPEDKARIEELKKRLEELLKEDPEKAREVLRELARLALETGDPEAIAYVLEAAKKLESSSS
B21: il10ra_site1_normal_mot_HHH_b2_02900_000000189_0001_39_52_H_._HHH_b2_05056_0001_0000100005_0000003_0_af2pred_0001 (protein)
chain: SSSSSEELERAVKIFREAAEQLYERGNPEAAKLAVRFALALARDNNNEELVEALEKLLEELSSSS
B22: il10ra_site1_sap_14_mot_HHH_b2_06602_000000226_0001_1_16_H_._HHH_b2_00791_0001_0000300021_0000001_0_0001_af2pred_0001 (protein)
chain: SSSSSDVKERAEELFEELRRLIEEGDEEELEKVFHELVELALKYRDREAAKIAARILKEFSSSSS
B23: il10ra_site1_normal_mot_HHH_b2_07579_000000275_0001_1_19_H_._HHH_b2_02385_0001_0000100006_0000001_0 (protein)
chain: SSSSSDEELREVYELLQRALRIDDPEEVRELLRQAEEIAEELGNFVFLWAIEHRLRDLDSSSSSS
B24: il10ra_site1_normal_mot_HHH_b1_05609_af2_000000134_0001_1_18_H_._HHH_b1_03004_0001_0000100007_0000001_0 (protein)
chain: SSSSSLEEILELSRRAFRLLLRGDKEEAEELLEEALELAREANDPRLARVIEDLLQALRSSSSSS
B25: il10ra_site1_sap_17_mot_HHH_b1_02665_000000293_0001_1_18_H_._HHH_b1_03975_0001_0000800017_0000001_0_0001_af2pred_0001 (protein)
chain: SSSSNDISEEVRRLLREASELLQNGNPEEAEKVVERALELAEEAGNEVLRWAAEFLLKLIRSSSS
B26: il10ra_site1_sap_21_mot_HHH_b1_00103_000000293_0001_1_15_H_._b5c6f2848cbf55e1ecbd417c35b42da7_0001_af2_0001_0000600017_0000002_0_0001 (protein)
chain: SSSSSSSSEEMLEFLIYALERAETEQQRRAALRFLEHMAKWANDEEAEEVVEEFKERHSSSSSSS
B27: il10ra_site1_normal_mot_HHH_b2_04275_000000272_0001_20_36_H_._HHH_b1_00715_af2_0001_0000300033_0000001_0 (protein)
chain: SSSSSTEELYELLREISELQHEGDREEAEKLLEEVRELAEELNNDIILAQVEFLERAVRNSSSSS
B28: il10ra_site1_sap_20_mot_HHH_b1_06914_000000280_0001_1_18_H_._HHH_b1_01194_0001_0000200036_0000001_0_0001 (protein)
chain: SSSSDEDSQRIYELLRLLAELDHEGDEERFEEVYEEVEELIEEANNRVLRAVLEALRRLFESSSS
B29: il10ra_site1_normal_mot_HHH_b1_06789_af2_000000041_0001_1_20_H_._HHH_b1_05385_0001_0000100001_0000001_0_af2pred_0001 (protein)
chain: SSSDKAARHLLELALEAAELALRLGDPEKAREALEIAEKLAEELGDEELLERVERLEELVNSSSS
B30: il10ra_site1_normal_mot_HHH_b2_03425_000000200_0001_22_39_H_._HHH_b1_03120_0001_0000200012_0000001_0 (protein)
chain: SSSSNEEHEELYERLRKLIELVSEGDEEEAEKLLRELEELAEELNDFIILFVVRLLKRQLSSSSS
B31: il10ra_site1_sap_22_mot_HHH_b2_04275_000000272_0001_20_36_H_._HHH_b2_00355_0001_0000200030_0000002_0_0001_af2pred_0001 (protein)
chain: SSSSSEREEFVRRSFHIAEWARKQGDEELAKFALRAAKRAAELSNDPELEELVEELERRLSSSSS
B32: il10ra_site1_normal_mot_HHH_b1_03859_af2_000000004_0001_44_57_H_._HHH_b1_08440_0001_0000100002_0000002_0 (protein)
chain: SSSSDEVLKEASELFQRASRLLEEGDKEEVEKIIEELRELSEEYGDRYVELSLRFLEALLSSSSS
B33: il10ra_site1_normal_mot_2c1a291787c6f40772924d4e9068d803_0001_af2_000000222_0001_34_48_H_._HHH_b1_05888_af2_0001_0000500027_0000002_0 (protein)
chain: SSSSNLEEEIFQLLIRAYRLLQEGDEEEARELLERAQELAEELNDPAALRAVESLLRMLDSSSSS
B34: il10ra_site1_sap_25_mot_HHH_b2_07784_af2_000000103_0001_19_36_H_._HHH_b1_08477_0001_0000100004_0000001_0_0001_af2pred_0001 (protein)
chain: SSSSNEEEERVLQLFLEVARLLDEGDEEKAEEILREAEELAKEINDPRLRLAVRFLKLLLSSSSS
B35: il10ra_site1_sap_21_mot_HHH_b1_02641_af2_000000230_0001_39_52_H_._HHH_b1_08599_af2_0001_0000300012_0000001_0_0001_af2pred_0001 (protein)
chain: SSSSDVEEEIEELVERAEELAEQGNPQEASKLLARASKLALELGDPELALRIAELFAKLSSSSSS
B36: il10ra_site1_normal_mot_b26a303360aa2756ef5b79665ce52f45_0001_000000179_0001_1_11_H_._2c46b57de5df830a699d451437f22a7b_0001_0001_0000100003_0000002_0 (protein)
chain: SEELERVKEVLKKLNTVAAFALLHKLRDLEQQGLSPEEILELLLEIAEEAGSELAREIIQELLEE
B37: il10ra_site1_sap_15_mot_HHH_b1_03328_af2_000000129_0001_1_21_H_._963dea14d5f61e40fbb13539fee36e1a_0001_0001_0000800016_0000002_0_0001 (protein)
chain: SSSSDVLHEIWRLIRKAFELLERGNPEEARRLVEEAQELAEERNDRATLRQLEMLEKKINSSSSS

molecular target: il10ra, Q13651; test: yeast display titration

Apparent Kd, inactive:
B1 no binding seen
B2 no binding seen
B3 no binding seen
B4 no binding seen
B5 no binding seen
B6 no binding seen
B7 no binding seen
B8 no binding seen
B9 no binding seen
B10 no binding seen
B11 no binding seen
B12 no binding seen
B13 no binding seen
B14 no binding seen
B15 no binding seen
B16 no binding seen
B17 no binding seen
B18 no binding seen
B19 no binding seen
B20 no binding seen
B21 no binding seen
B22 no binding seen
B23 no binding seen
B24 no binding seen
B25 no binding seen
B26 no binding seen
B27 no binding seen
B28 no binding seen
B29 no binding seen
B30 no binding seen
B31 no binding seen
B32 no binding seen
B33 no binding seen
B34 no binding seen
B35 no binding seen
B36 > 613 nM
B37 no binding seen

A section taken from the entries so far:
Apparent Kd, inactive:
B31 no binding seen
B32 no binding seen
